Assay [1] concerns the target Chd4 (chromatin helicase DNA binding protein 4) (mouse (endogenous in heart)) (UniProt Q6PDQ2). Briefly: co-IP; anti-Chd4 immunoprecipitation from WT and Chd4corin cardiac nuclear extracts, Western blot for Znf219. (A western blot detects proteins with antibodies after separation by electrophoresis.)
The target in another assay is Flag-Chd4 (UniProt Q6PDQ2). As to the kind of experiment: co-IP; cells co-transfected with Flag-Chd4 and Myc-Znf219 plasmids (Figure S1); which protein was precipitated is not told in the text shown.

Protein sequences, listed by entry. Tags and fused reporters are not part of them.
UniProt Q6PDQ2: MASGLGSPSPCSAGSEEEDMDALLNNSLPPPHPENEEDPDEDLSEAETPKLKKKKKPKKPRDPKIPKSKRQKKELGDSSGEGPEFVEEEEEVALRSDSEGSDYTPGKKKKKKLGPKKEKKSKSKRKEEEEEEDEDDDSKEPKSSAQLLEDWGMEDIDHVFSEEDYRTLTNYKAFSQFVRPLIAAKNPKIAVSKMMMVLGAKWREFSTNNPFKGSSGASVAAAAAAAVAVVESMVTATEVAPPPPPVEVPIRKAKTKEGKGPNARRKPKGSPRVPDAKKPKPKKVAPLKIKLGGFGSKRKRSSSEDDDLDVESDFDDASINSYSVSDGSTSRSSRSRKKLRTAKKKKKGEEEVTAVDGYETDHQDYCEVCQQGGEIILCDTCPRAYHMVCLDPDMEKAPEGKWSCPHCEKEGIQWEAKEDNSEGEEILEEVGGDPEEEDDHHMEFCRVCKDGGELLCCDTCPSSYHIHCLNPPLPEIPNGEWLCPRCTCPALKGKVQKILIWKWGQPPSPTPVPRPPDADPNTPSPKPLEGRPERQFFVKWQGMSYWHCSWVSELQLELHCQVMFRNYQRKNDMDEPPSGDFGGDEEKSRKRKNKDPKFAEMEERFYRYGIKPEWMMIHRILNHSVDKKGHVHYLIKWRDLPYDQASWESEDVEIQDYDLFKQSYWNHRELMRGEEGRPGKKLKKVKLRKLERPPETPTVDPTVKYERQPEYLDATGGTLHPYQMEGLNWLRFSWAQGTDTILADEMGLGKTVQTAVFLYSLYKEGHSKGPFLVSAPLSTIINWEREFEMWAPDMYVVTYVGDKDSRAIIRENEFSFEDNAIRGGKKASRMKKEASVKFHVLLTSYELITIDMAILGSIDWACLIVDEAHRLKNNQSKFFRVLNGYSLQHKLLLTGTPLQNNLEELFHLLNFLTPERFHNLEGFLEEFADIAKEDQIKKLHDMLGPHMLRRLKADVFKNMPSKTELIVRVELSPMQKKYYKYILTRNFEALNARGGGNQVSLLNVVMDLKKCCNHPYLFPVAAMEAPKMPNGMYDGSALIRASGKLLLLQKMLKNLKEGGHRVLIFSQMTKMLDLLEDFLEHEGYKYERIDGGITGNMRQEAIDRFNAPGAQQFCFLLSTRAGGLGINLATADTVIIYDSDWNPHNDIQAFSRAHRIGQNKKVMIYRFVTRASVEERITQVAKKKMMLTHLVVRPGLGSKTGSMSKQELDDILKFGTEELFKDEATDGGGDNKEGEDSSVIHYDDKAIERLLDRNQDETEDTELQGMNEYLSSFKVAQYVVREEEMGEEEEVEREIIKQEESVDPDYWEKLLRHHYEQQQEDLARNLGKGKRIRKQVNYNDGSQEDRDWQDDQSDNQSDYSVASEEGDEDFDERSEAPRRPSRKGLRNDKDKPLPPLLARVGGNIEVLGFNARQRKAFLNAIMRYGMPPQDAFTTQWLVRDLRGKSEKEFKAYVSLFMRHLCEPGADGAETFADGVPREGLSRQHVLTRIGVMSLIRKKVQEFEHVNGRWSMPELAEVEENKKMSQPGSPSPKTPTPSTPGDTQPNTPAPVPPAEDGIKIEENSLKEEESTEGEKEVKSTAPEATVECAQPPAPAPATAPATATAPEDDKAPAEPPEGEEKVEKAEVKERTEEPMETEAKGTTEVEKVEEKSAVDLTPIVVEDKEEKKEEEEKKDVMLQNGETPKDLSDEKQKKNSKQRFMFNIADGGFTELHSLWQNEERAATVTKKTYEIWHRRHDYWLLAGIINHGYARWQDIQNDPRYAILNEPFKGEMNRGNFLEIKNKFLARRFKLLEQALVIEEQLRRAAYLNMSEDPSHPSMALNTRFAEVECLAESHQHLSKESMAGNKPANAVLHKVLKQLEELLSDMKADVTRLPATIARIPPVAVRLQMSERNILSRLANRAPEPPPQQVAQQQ

No constants are given. Whether binding was seen depends on the method and setting. In cells and extracts the contact can be indirect. Some results given as binding are weak or reduced against the parent protein; the word gives no strength. For some assays here: Sequences can lack the tags named with a protein.

B1: Znf219 (protein, UniProt Q6IQX8 1-726)
chain: MEGSRPRILVGHLEPSPPAFDGELDLQRYSNGPGVSGTPGPGSPGMGAVGWSETRAGERRFPCPVCGKRFRFNSILALHLRAHPGAQAFQCPHCGHRAAQRALLRSHLRTHQPERPRSPAARLLLELEERALLREARLGRARSSGGMQSSPAAEGLARPQVPSSSAFRCPFCKGKFRTSAERERHLHILHRPWKCSLCSFGSSQEEELLHHSLTAHGASERPLAATSTPEPPPPPQQEPRSALEPEPEPEPRPEPDREANPAPTPAPPEEPPAPPEFRCQVCGQSFTQSWFLKGHMRKHKASFDHACPVCGRCFKEPWFLKNHMKVHTSKLGPLRAPGPGSAPARAPQPPDLSLLAYEPLGPALLLAPAPAPAERREPPSLLGYLSVRAGEVRPNGEGADPGGGRSYGGFRPLPSALPNRARRHRTEEPEEEEEVVEAEEESWARGRSLGSLTSLHPNPGEGSGQPAPAAGTQARSTATQEENGLLVGGTRSEAGRGATGKDCPFCGKSFRSAHHLKVHLRVHTGERPYKCPHCDYAGTQSGSLKYHLQRHHREQRSSAGPGPPPEPPPPSQRGSLQPQSGAKPTQASATWVEGTASTRPPSSSTGPGSRRKPASPGRTLRNGRGGEAEPLDLSLRAGPGGEAGAGGALHRCLFCPFATGAPELMALHLQVHHSRRARGRRQPRADTSPTYVRAPSGETPPSPPLEEEGSPGLSRSGEAGLGGQER
On to B1, for which, in assay [1], the binding result is “binds”.

B2: Myc-Znf219 (protein, UniProt Q6IQX8 1-726)
chain: MEGSRPRILVGHLEPSPPAFDGELDLQRYSNGPGVSGTPGPGSPGMGAVGWSETRAGERRFPCPVCGKRFRFNSILALHLRAHPGAQAFQCPHCGHRAAQRALLRSHLRTHQPERPRSPAARLLLELEERALLREARLGRARSSGGMQSSPAAEGLARPQVPSSSAFRCPFCKGKFRTSAERERHLHILHRPWKCSLCSFGSSQEEELLHHSLTAHGASERPLAATSTPEPPPPPQQEPRSALEPEPEPEPRPEPDREANPAPTPAPPEEPPAPPEFRCQVCGQSFTQSWFLKGHMRKHKASFDHACPVCGRCFKEPWFLKNHMKVHTSKLGPLRAPGPGSAPARAPQPPDLSLLAYEPLGPALLLAPAPAPAERREPPSLLGYLSVRAGEVRPNGEGADPGGGRSYGGFRPLPSALPNRARRHRTEEPEEEEEVVEAEEESWARGRSLGSLTSLHPNPGEGSGQPAPAAGTQARSTATQEENGLLVGGTRSEAGRGATGKDCPFCGKSFRSAHHLKVHLRVHTGERPYKCPHCDYAGTQSGSLKYHLQRHHREQRSSAGPGPPPEPPPPSQRGSLQPQSGAKPTQASATWVEGTASTRPPSSSTGPGSRRKPASPGRTLRNGRGGEAEPLDLSLRAGPGGEAGAGGALHRCLFCPFATGAPELMALHLQVHHSRRARGRRQPRADTSPTYVRAPSGETPPSPPLEEEGSPGLSRSGEAGLGGQER
As to B2, the binding entry with Flag-Chd4 is listed as “binds”.

These data come from PMC9455175.
